Experimental data reported in PMC7933155, “IL-23p19 and CD5 antigen-like form a possible novel heterodimeric cytokine and contribute to experimental autoimmune encephalomyelitis development” (Scientific Reports, 2021).

Molecular target: T1, mouse CD5 antigen-like with c-MYC tag (pCMV3-CD5L-c-MYC) (mouse) (UniProt Q9QWK4)
T1 sequence: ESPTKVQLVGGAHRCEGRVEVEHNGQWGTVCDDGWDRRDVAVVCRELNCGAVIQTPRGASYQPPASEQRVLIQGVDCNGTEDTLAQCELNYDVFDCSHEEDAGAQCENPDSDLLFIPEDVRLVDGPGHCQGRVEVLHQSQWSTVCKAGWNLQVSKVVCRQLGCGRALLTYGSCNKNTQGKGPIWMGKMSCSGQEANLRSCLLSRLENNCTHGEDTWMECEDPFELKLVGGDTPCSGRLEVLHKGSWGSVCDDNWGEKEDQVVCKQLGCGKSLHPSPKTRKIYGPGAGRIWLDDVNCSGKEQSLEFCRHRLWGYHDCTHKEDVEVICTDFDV
Experiment: co-IP; HEK293-F cells transiently cotransfected, 3 days; cell lysates (1% Nonidet P-40, 10 mM Tris-HCl pH 7.5, 150 mM NaCl, 1 mM EDTA) or culture supernatants; IP with anti-FLAG (M2) or anti-c-MYC (9E10) on protein G-Sepharose, 2 h to overnight at 4 °C; reducing SDS-PAGE; western blot with biotin-conjugated anti-c-MYC or anti-p19

binding: no binding
Substance: mouse IL-23 p19 mutant C55S with C-terminal 3×FLAG (p3×FLAG-CMV-14-p19^C55S)

No constants are given. Whether binding was seen depends on the method and setting. Binding seen in cells or lysates may run through a third protein. Where a sequence is shown, tags or fusion partners need not be part of it.
